The values below come from article PMC6499814.

Amino acid sequences for entries named in this document (tags omitted).
UniProt Q9Y3D6: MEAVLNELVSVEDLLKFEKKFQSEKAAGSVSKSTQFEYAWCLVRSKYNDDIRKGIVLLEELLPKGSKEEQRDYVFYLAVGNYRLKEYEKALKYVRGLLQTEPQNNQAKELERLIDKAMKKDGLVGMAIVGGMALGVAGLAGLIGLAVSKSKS
UniProt P56962: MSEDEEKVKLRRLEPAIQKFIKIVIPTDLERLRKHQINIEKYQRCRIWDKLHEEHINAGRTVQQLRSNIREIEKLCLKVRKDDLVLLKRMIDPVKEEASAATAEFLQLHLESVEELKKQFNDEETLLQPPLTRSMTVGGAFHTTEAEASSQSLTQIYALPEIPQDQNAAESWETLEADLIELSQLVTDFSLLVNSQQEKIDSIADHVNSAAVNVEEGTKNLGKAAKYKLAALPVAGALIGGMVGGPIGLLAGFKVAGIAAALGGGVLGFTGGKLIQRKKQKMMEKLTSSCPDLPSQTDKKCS

These are yes or no findings as the source states them, for the method shown. Binding seen in cells or lysates may run through a third protein. Here binding means that the protein was enriched with, or labelled near, the bait; the list need not be complete.

In the experiment the target is Flag-tagged Fis1 (mitochondrial fission 1 protein) (UniProt Q9Y3D6). Put plainly: affinity purification with mass spectrometry; HeLa cells transfected with Flag vector or Flag-Fis1 for 24 h; IP with anti-Flag beads; Coomassie-stained bands 1 and 2 analysed by mass spectrometry.

As to “Syntaxin 17 (STX17), endogenous (from UniProt P56962 1-302)”, the binding result was “binds”.
